Among the data in article PMC7862700 are binding signal values, retold here.

The entries are a selection whose mix differs from that of the whole data set. At the low end of the ranking the order means little.

The experiment deals with T1, GABPA (UniProt Q06546).
T1 sequence: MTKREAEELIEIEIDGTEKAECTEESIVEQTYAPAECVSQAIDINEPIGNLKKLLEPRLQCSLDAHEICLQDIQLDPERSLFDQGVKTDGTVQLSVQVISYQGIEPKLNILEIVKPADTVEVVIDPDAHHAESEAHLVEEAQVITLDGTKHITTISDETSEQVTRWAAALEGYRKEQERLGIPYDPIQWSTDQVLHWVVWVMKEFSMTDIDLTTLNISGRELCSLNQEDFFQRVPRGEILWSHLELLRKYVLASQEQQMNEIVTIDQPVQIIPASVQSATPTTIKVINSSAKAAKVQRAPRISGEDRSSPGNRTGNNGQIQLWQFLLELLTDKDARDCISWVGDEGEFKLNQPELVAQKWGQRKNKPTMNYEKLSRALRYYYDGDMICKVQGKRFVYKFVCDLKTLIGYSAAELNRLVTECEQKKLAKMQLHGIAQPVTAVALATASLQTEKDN
Nature of the experiment: DAPPL (digital affinity profiling via proximity ligation, sequencing). To be noted: 10 mM Tris-HCl pH 7.5, 50 mM NaCl, 1 mM DTT, 4% glycerol, room temperature, 30 min; GST-TFs on glutathione beads, 16-mer random dsDNA library, 0.1% …; high values mean tight binding; double strand, one strand shown; scale: fold enrichment (6-mer frequency, TF over GST control).
TTTCCA came in with a binding signal of 1.39.

Take TACACA: the binding signal was 1.15.

Regarding GGTCTC, the binding signal is 2.5.

Sequence CAATTT came in with a binding signal of 1.37.

The sequence CCACCT came in with a binding signal of 1.1.

TGGATA registered a binding signal of 1.1.

Sequence ATTCAA came in with a binding signal of 1.4.

Consider TGAATG, for which the binding signal is 1.17.

In turn, TATAGC displayed a binding signal of 1.26.

With GCCCGG, the binding signal stood at 0.933.

On to TGCACC, for which the binding signal turned out to be 1.25.

Regarding CCACCA, the binding signal was 0.984.

In turn, TTCAAC showed a binding signal of 1.24.

Turning to AAACTT, the binding signal was 1.31.

The sequence TATAGG gave a binding signal of 1.19.

Regarding GGATTT, the binding signal is 1.26.

With ATTAGT, the binding signal worked out at 0.974.

As to ATTGTT, the binding signal was determined as 1.55.

Consider CATGTT, for which the binding signal was 0.998.

As to CATTCG, the binding signal is 1.17.

Turning to GTCCTT, the binding signal turned out to be 1.28.

In turn, TAGACA showed a binding signal of 1.01.

With CTATGG, the binding signal is 1.21.

For the sequence TAGTTC, the binding signal turned out to be 1.28.

With TCTATG, the binding signal is 1.21.

Sequence CGATGG returned a binding signal of 1.36.

Regarding GATACC, the binding signal is 0.92.

Regarding TAACTG, the binding signal was determined as 1.24.

As to CAGCCC, the binding signal is 1.06.

With CATACG, the binding signal was 1.03.

In turn, AAACAA gave a binding signal of 1.2.

Turning to AAGGTT, the binding signal is 1.13.

CAACCG returned a binding signal of 1.

For CTTTGC, the binding signal came to 1.39.

In turn, GTTGAC showed a binding signal of 1.19.

Consider ATATTT, for which the binding signal was 1.55.

For GTGTTC, the binding signal turned out to be 1.26.

Turning to ACGACA, the binding signal stood at 1.18.

In turn, CATCAC returned a binding signal of 1.18.

CTCGGT gave a binding signal of 1.09.
